Experimental data: PubChem BioAssay AID652272 (Drosophila RNAi Screening Center, 2013)
Assay: 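Finding fly genes that regulate Hedgehog signal transduction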 (primary screen). Cells: Drosophila clone 8 (Cl8) cells. Reagents: long dsRNA against Drosophila genes. Measurement: 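Firefly light from a Hedgehog-responsive ptc promoter reporter and Renilla reference light, both read on a plate reader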. Scale: firefly Hh reporter signal: higher = more ptc reporter light; Renilla reference signal: higher = more Renilla control light. Hit rule: 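Hit when the z-score averaged over two replicates is under -2 or over +3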. Calls: active = hit: reporter lowered or raised; inactive = not a hit.
The deposit covers about 21,000 reagents; shown is a random part of those that have a named target and a result. In the full data, 503 (2.4%) were called active. 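Raw plate light values, not normalised; calls rest on replicate z-scores that were not deposited; hits include reporter decreases as well as increases.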 Entries without a mark were called inactive. The numbers tell different reagents against one gene apart. The record does not give: the amount of reagent, the time to read-out.

no.	Target gene	reagent	firefly Hh reporter signal, replicate 1	firefly Hh reporter signal, replicate 2	firefly Hh reporter signal, replicate 3	Renilla reference signal, replicate 1	Renilla reference signal, replicate 2
1	Hr39 (Hormone receptor-like in 39)	1	62898	58422		3162	2420
2	MsrA (Methionine sulfoxide reductase A)	1	1.12e5			5139	3341
3	Obp83ef (Odorant-binding protein 83ef)	1	88768	1.00e5		3282	3226
4	CG42784	1	1.37e5	1.37e5		6041	4818
5	CG42784	2	83398	22368		2214	2145
6	CG10073	1	1.01e5	67917		2723	4969
7	Btnd (Biotinidase)	1	70630	1.86e5		2373	6867
8	CG4702	1	1.13e5	1.19e5		4572	4460
9	CG15548	1	92373	1.16e5		3168	3209
10	nompB (no mechanoreceptor potential B)	1	75209	60131		1724	5003
11	nompB (no mechanoreceptor potential B)	2	1.18e5	1.06e5		2978	9307
12	CG32110	1	2.22e5			4875	
13	mtSSB (mitochondrial single stranded DNA-binding protein)	1	86409	99549		2363	2838
14	Afti (Aftiphilin)	1	1.20e5	58102		4560	2360
15	CG1824	1	1.04e5	3.56e5		3331	11035
16	CG43376	1	74609	34545		1992	3872
17	viaf (viral IAP-associated factor)	1	1.22e5	55941		4714	2380
18	CG14125	1	35586	65547	56522	7016	3712
19	beat-VI (beaten path VI)	1	1.02e5	1.45e5		3413	4792
20	beat-VI (beaten path VI)	2	74932	96077		2608	3174
21	beat-Va (beaten path Va)	1	1.18e5	1.16e5		4365	2520
22	Rac2	1	43692	72674		5831	5360
23	veg (retired record)	1	75196	60563		1929	3856
24	Rae1	1	1.09e5	68514		4204	2499
25	CG15657	1	71270	93298		1461	7669
26	CG11600	1	81392	1.18e5		3036	3236
27	Septin5 (Septin 5)	1	58336	65419		2534	2332
28	CG8950	1	1.09e5	91587		5137	3440
29	cad (caudal)	1	1.07e5	59528		3482	1856
30	CG9030	1	86004	1.93e5		1810	8417
31	CG12945	1	89552	1.16e5		2151	3450
32	lncRNA:CR41443 (long non-coding RNA:CR41443)	1	1.61e5	3.06e5		4538	12985
33	Diedel2 (Diedel 2)	1	49383	2.59e5		12355	6048
34	Lk6 (Lk6 kinase)	1	46051	1.76e5		10343	4250
35	Lk6 (Lk6 kinase)	2	1.47e5	95976		6144	3949
36	CG32104	1	52056	64372	59139	5248	1848
37	CG32104	2	87121	1.00e5	59749	5777	3389
38	CG8312	1	71757	1.40e5		1433	4005
39	CG4218	1	1.58e5	64842		3696	5860
40	ergic53	1	46778	62352		5783	3752
41	promL (prominin-like)	1	86182	77746		3397	3275
42	Taf8 (TBP-associated factor 8)	1	90247	58061		5538	2134
43	Ca-beta (Ca2+-channel-protein-beta-subunit)	1	1.15e5	69493		3584	6024
44	Ca-beta (Ca2+-channel-protein-beta-subunit)	2	1.18e5	60902		3130	6061
45	Ca-beta (Ca2+-channel-protein-beta-subunit)	3	1.79e5	8.73e5	1.12e5	4358	51111
46	kune (kune-kune)	1	84624	80144		2055	7268
47	CG14860	1	1.40e5	1.37e5		5792	2839
48	CG33169	1	1.34e5	1.45e5		4619	4260
49	CG13086	1	1.32e5	49420		3436	5540
50	eIF4H1 (eukaryotic translation initiation factor 4H1)	1	59168	2.05e5		1265	7082
51	Glut4EF (Glucose transporter 4 enhancer factor)	1	88267	61991		2860	2069
52	Glut4EF (Glucose transporter 4 enhancer factor)	2	1.25e5	1.78e5		3835	4624
53	Glut4EF (Glucose transporter 4 enhancer factor)	3	72106	1.31e5		1861	3195
54	Glut4EF (Glucose transporter 4 enhancer factor)	4	93235	1.32e5		2594	3392
55	Glut4EF (Glucose transporter 4 enhancer factor)	5	88256	1.21e5		2754	3113
56	PolZ1 (DNA polymerase zeta subunit 1)	1	88516	76169		3890	3171
57	CG12826	1	1.05e5	47036		2152	2981

An excerpt from above, reduced to “firefly Hh reporter signal, replicate 2”.
CG14125	65547
beat-VI (beaten path VI) #1	1.45e5
beat-VI (beaten path VI) #2	96077
beat-Va (beaten path Va)	1.16e5
Rac2	72674
veg (retired record)	60563
Rae1	68514
CG15657	93298
